## Library screening results

A: 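Whole-cell assay for inhibitors of Mycobacterium tuberculosis growth, labelled Cornell in the record; the read-out is not stated. The concentration is filed as 10 mM, unlikely as a test dose, so the dose is not known. The record gives no direction; compounds strong in two other growth screens of this library score well above the rest, so higher reads as stronger inhibition. Of about 53,000 compounds tested this way, about 900 (1.7%) reached 50% or more in at least one test.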
B: 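Assay on Mycobacterium tuberculosis, filed only as a heat shock assay from Cornell; the read-out is not stated. The concentration is filed as 10 mM, unlikely as a test dose, so the dose is not known. Direction is inferred from retests: higher values go with stronger inhibition. About 69,000 compounds were tested under these conditions; 1.4% (about 930) showed 50% or more at least once.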

The filed quantity is “Percent Effect” (%).
The controls that fix the scale are not given in the record; negative values are as filed.
Compounds were drawn at random from those tested, without regard to their results.
A dash means the value is not listed here; it may have been measured.

structure,A,B
OC(CN1CCN(CCOCC(F)(F)F)CC1)c1ccccc1 (stereo not given),-,-20.09
O=C(CCn1cncn1)NCC(c1ccco1)N1CCCC1 (stereo not given),-,-0.05775
CC(=O)N1CC[C@@H](N2CCN(C)CC2)[C@@H]1Cc1ccccc1,9.181,12.69
Cc1ccc(-c2nc(CN3C[C@@H](C)NC[C@@H]3C)c(C)o2)s1,12.13,-6.949
COc1ccc(CCCN(C)C(=O)c2cc(Cl)c[nH]2)cc1OC,8.303,2.517
COc1ccccc1C(C)(C)NC(=O)Nc1ccc(F)c(C(N)=O)c1,11.12,10.95
Cc1cccc(C2CCCN(C(=O)CN3C(=O)CCNC3=O)C2)c1 (stereo not given),10.18,0.5241
Cc1nc(C(=O)N2CCC(Nc3cccnn3)CC2)cs1,-,-12.54
CN1CCN(Cc2cccnc2)C2(CCN(C3CCOCC3)C2)C1=O.O=C(O)C(F)(F)F.O=C(O)C(F)(F)F.O=C(O)C(F)(F)F (stereo not given),-9.49,-35.96
COc1nc2c(cc1C(=O)NCc1noc(Cc3cccs3)n1)CCC2,20.4,-23.17
CC(C)N(CCNC(=O)c1[nH]nc2ccc(I)cc12)C(C)C,8.147,20.44
O=C(O)C(F)(F)F.[H][C@]12CCCN(Cc3ccc(C)o3)[C@@]1([H])CN(C(C)=O)C2,-,-0.528
CC(=O)c1c(C)nn(S(=O)(=O)c2ccc(F)cc2)c1C,-,0.08191
O=C1CC[C@H](C(=O)N(Cc2cccc(Br)c2)C2CC2)N1,-17.89,-6.075
N#CCCCOc1cccnc1NC(=O)CC1CCCCC1,-14.31,-13.63
CC[C@H]1CN(S(C)(=O)=O)CC[C@H]1CC(=O)NCCSC,-,5.655
O=C(O)C(F)(F)F.O=C(O)C(F)(F)F.O=C(c1ccccn1)N1Cc2nccn2CC(CN2CCOCC2)C1 (stereo not given),11.61,1.836
O=C(Cc1cn2ccsc2n1)N1CCCC(n2ccnc2)C1 (stereo not given),-,1.885
CC(NCc1ccc(-c2ccc(F)cc2)o1)c1nnc2n1CCC2 (stereo not given),-,-6.46
[H][C@]12C(=O)N[C@H](Cc3c[nH]c4ccccc34)C(=O)N1CC[C@@H]2NC(C)=O,3.299,-6.612
COCCNC(=O)c1ccnn1-c1ccc2ccccn12,25.68,-30.5
COc1cccc(OCc2cc(C(=O)NC[C@H]3CCCN3)n[nH]2)c1,-16.54,-7.001
CC(=O)N(Cc1noc(C2CC2)n1)C1CCN(Cc2cc(C)on2)C1 (stereo not given),7.597,-12.78
Cc1ccc(S(=O)(=O)N2CCc3ccc(F)cc32)cc1C(=O)O,26.69,-10.74
Cn1cnc2cc(NC(=O)c3n[nH]c4c3CCC4)ccc21,35.69,-3.579
[H][C@]12CCN(C(=O)c3ccc[nH]3)[C@@]1([H])CCC(=O)N2CCN1CCOCC1,-38.58,-22.79
Cc1cccc2[nH]c(C3CCN(C(=O)c4c[nH]c(=O)[nH]c4=O)CC3)nc12,9.933,12.09
CCN(CC(=O)N(C)C)C(=O)c1ccc(-c2nc(C)cs2)cc1,-2.647,8.938
N#Cc1cccc(N2CCC(CO)(CCCc3ccccc3)CC2)n1,-,-22.17
CCn1nc(C)c(CCNC(=O)C2CCCN(C3CCCC3)C2)c1C (stereo not given),-2.41,-33.27
CCCn1cc(NC(=O)c2cccnc2O)ccc1=O,-,11.7
O=C(O)C(F)(F)F.[H][C@@]12CCN(C(=O)CC(C)C)CC[C@]1(C(=O)Nc1ccccc1)CCN2C,-24.34,-17.77
Cn1cnnc1C1CCCN(C(=O)c2cc(Cl)c(Cl)n2C)C1 (stereo not given),-,-2.432
CSCC(=O)N1CCCN(Cc2cscn2)CC1,-,10.56
Cn1ncnc1NCc1ccc(F)cc1,-11.34,-19.17
CS(=O)(=O)CCn1ccc(NC(=O)Cc2cccc(Cl)c2)n1,20.54,4.025
O=C(O)C(F)(F)F.[H][C@]12CCC[C@@H](CN(C)C)[C@@]1([H])CN(c1cc(OC)ncn1)C2,9.38,-30.27
[H][C@@]12C[C@H](c3nc(C)no3)O[C@@]1([H])CCN(C(=O)C1CCOCC1)C2,1.617,12.62
CC(NCc1cccnc1)c1ccc(OCC(=O)NC2CC2)cc1 (stereo not given),-,-10.15
CCOCC1CN(S(=O)(=O)CC)Cc2cnn(CC3CC3)c21.O=C(O)C(F)(F)F (stereo not given),-3.689,-16.81
CC(NCc1cnc(C2CCC2)s1)c1ccccc1-n1cccn1 (stereo not given),-,-32.1
COCC(C)(O)CNC(=O)COc1ccccc1OC (stereo not given),-35.3,-9.975
CCC(=O)N(C)CC(=O)Nc1ccc(Br)cn1,-,-10.18
Cc1cscc1-c1nc(C2CCOC2)no1 (stereo not given),-39.78,-13.95
COc1cc(Br)c(CNC2CCCNC2=O)cc1OC.Cl (stereo not given),-5.018,-28.13
CN1C[C@@H](NC(=O)C2CC2)C[C@H]1c1nc(-c2cnccn2)no1,4.778,3.848
COCCCNC(=O)c1cc(-c2cnc(N(C)C)nc2)cn1CC1CC1.O=C(O)C(F)(F)F,-,0.3583
[H][C@@]12C[C@H](C(=O)NC(C)C)[C@@]([H])(CN(C(=O)NCCc3ccccc3)C1)O2,-43.91,-3.811
N#Cc1ccccc1N1CCN(C(=O)NCCN2CCOCC2)CC1,-,17.29
CCCn1ncc(C(=O)N(Cc2cccnc2)C[C@@H]2CCC(=O)N2)c1C,13.51,8.125
O=S1(=O)CCC(S(=O)(=O)c2cccc(S(=O)(=O)N3CCCC3)c2)C1 (stereo not given),4.254,-1.038
O=C(NCCCN1CCOCC1)c1ccn(COc2ccccc2)n1,-,-3.007
[H][C@@]12CN(C(=O)NCC)C[C@]1([H])OCC(=O)N2CC1CC1,-22.67,-9.751
Cn1cc2ncn(CCC3CCN(Cc4ccccc4)C3)c(=O)c2n1 (stereo not given),-,-13.52
CC(Oc1ccccc1)C(=O)N1CCCN(Cc2nccn2C)CC1 (stereo not given),6.03,-1.224
Cc1nc(CN(C)C(=O)c2ccc(Cn3cnnn3)cc2)cs1,7.042,-4.091
Cc1ccccc1CN(C)C(=O)CN1CCCC(Cn2cncn2)C1 (stereo not given),-,3.377
O=C(O)C(F)(F)F.O=C(O)C(F)(F)F.[H][C@@]12CCN(c3nnc(C)s3)[C@]1([H])CC[C@@H](C(=O)NCc1ccccn1)O2,6.899,-4.989
O=C1CCN(C(=O)NCCc2c[nH]c3ccc(Cl)cc23)CCN1,-52.63,3.685
COc1coc(C(=O)Nc2nc(-c3ccncc3)cs2)cc1=O,12.55,-11.7
Cc1ccc(CN2CCc3[nH]nc(C(=O)N4CCN(C)CC4)c3C2)o1.O=C(O)C(F)(F)F.O=C(O)C(F)(F)F.O=C(O)C(F)(F)F,-,-34.39
Cc1nnc(C(C)N2CCN(Cc3noc(C(C)(C)C)n3)CC2)o1 (stereo not given),-,-2.979
O=C(Nc1cc(C(F)(F)F)c[nH]c1=O)C1CCCO1 (stereo not given),28.57,-4.663
O=C1CC(c2cccs2)c2cnn(C3CCCC3)c2N1 (stereo not given),-0.8462,9.372
CCN(CC)c1ncc(S(=O)(=O)c2cccc(C)c2)c(N)n1,3.513,-13.75
CC(C)N1CCC2(CC1)C(=O)N(CCN(C)C)c1ccccc12.O=C(O)C(F)(F)F.O=C(O)C(F)(F)F,1.863,2.235
Cn1cc(CNC2CCc3ncnn3C2)c(-c2cccnc2)n1 (stereo not given),-,-6.599
CC(NC(=O)NCC(C)(C)C(N)=O)c1nc(-c2ccccc2)cs1 (stereo not given),-,-24.34
O=C(N1CCCC1)N1CCc2onc(COc3cccnc3)c2C1.O=C(O)C(F)(F)F,31.29,-4.712
Cc1nonc1CN(C)c1nc(-c2cccnc2)nc2c1CCNC2,-,0.748
O=C(O)C(F)(F)F.O=C(O)C(F)(F)F.[H][C@@]12CNCC[C@]1([H])OC[C@H](C(=O)Nc1cccnc1)C2,26.65,-15.71
CCN(CC)C(=O)CSc1nnc(CCNC(=O)OC(C)(C)C)o1,-12.06,3.451
Cc1cc2n(n1)CC(CNCc1ccc(N3CCOCC3)nc1)CN2 (stereo not given),-,-16.12
CC(C)Oc1ccc(CN)c(C(F)(F)F)c1,29.59,5.582
Cc1cc(NC(=O)N2CCOCC2)nn1-c1ccccc1Cl,-,-7.469
O=C(NCC1COCCO1)c1csc(Cc2ccccc2)n1 (stereo not given),8.584,-9.59
[H][C@@]12CS(=O)(=O)C[C@]1([H])N(Cc1cc(C)cc(C)c1)CCN2C(=O)C1CCC1,42.69,-18.25
CC(C)CC(NC(=O)c1ccn(C)c(=O)c1)c1cccs1 (stereo not given),-57.7,5.479
Cc1cc(C)c(CNC(=O)N2CCCC2c2cccn2C)c(=O)[nH]1 (stereo not given),-,3.618
CC1CCC2(CC1)Nc1ccccc1CO2 (stereo not given),5.323,1.744

For reference, 5 entries once more:

{"structure": "COCCNC(=O)c1ccnn1-c1ccc2ccccn12", "A": 25.68, "B": -30.5}
{"structure": "COc1cc(Br)c(CNC2CCCNC2=O)cc1OC.Cl", "stereo": "stereo not given", "A": -5.018, "B": -28.13}
{"structure": "CC(C)N(CCNC(=O)c1[nH]nc2ccc(I)cc12)C(C)C", "A": 8.147, "B": 20.44}
{"structure": "[H][C@@]12CS(=O)(=O)C[C@]1([H])N(Cc1cc(C)cc(C)c1)CCN2C(=O)C1CCC1", "A": 42.69, "B": -18.25}
{"structure": "CCN(CC(=O)N(C)C)C(=O)c1ccc(-c2nc(C)cs2)cc1", "A": -2.647, "B": 8.938}

From ChEMBL document CHEMBL3988442, “University of Dundee, Small-Polar-MMV Screening Library” (2021).